Experimental data taken from PMC12500907.
Results are given in words; binding and its absence hold for the method and conditions named. Binding seen in cells or lysates may run through a third protein. These calls come from enrichment with a bait or labelling near it, and not all partners need be listed.

Biological target: Myc-NY-ESO-1 (New York esophageal squamous cell carcinoma 1) (human) (UniProt P78358)
Experiment: affinity purification with mass spectrometry; HEK293T transfected with Myc-NY-ESO-1, harvested 48 h later; lysates immunoprecipitated with anti-Myc antibodies; LC-MS/MS

binding: binds
Substance: PP1α, endogenous in HEK293T cells (from UniProt P62136 1-330) (enzyme)
